Library screening results

Data taken from ChEMBL document CHEMBL3988442, “University of Dundee, Small-Polar-MMV Screening Library” (2021).

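Viability assay of Plasmodium falciparum sporozoites; the read-out is not stated. The concentration is filed as 10 mM, unlikely as a test dose, so the dose is not known. The record gives no direction; compounds that gave an IC50 in retests scored well above the rest, so higher reads as lower viability. Strong results were mostly tested again. Size under these conditions: about 34,000 compounds, about 280 of them at 50% or above in at least one test.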

Results are given as percent effect.
The record does not define 0% and 100%; most values in the screen are far below 50% and negative numbers occur (in some assays of this library far below -100).
This is an unselected part of the compounds tested.
Two or more numbers in one place are separate tests of the same structure; such repeats can differ widely.

Compound | Percent Effect
Cc1cnc(CNC(=O)NCc2cccnc2N(C)C)s1 | 2.126
CN(c1cccnc1N1CCCC1)S(=O)(=O)c1cccs1 | 6.548
[H][C@@]12C[C@H](C)O[C@]1([H])CCN(C(=O)c1ccncn1)C2 | -3.833
CC(=O)N(Cc1ncc(C)o1)C1CCN(Cc2ccncc2Cl)C1 (configuration not stated) | 2.081
CNC(=O)Nc1cnc2cc(Cl)ccc2c1O | 12.1
CCn1c(CN(C)C)nnc1C1CCN(Cc2ccncc2)CC1 | 1.491
CCN1CCCC(O)(CNCc2ccncc2)C1 (configuration not stated) | 18.93
OC(COCc1ccccc1F)CN1CCc2c(ncn2C2CC2)C1 (configuration not stated) | -2.451
Cc1nc(Nc2ncccn2)cc(C2CCCN2C(C)C)n1 (configuration not stated) | 9.26
CCc1nc(C)c(C(=O)NCCNc2cnccn2)s1 | 3.015
[H][C@@]12CCCO[C@]1([H])[C@H](NC(=O)C1CC1)CN2Cc1cccs1 | 7.251
CS(=O)(=O)N1CCN(C(=O)CCn2cccn2)CC1 | -5.987
COc1ccccc1CNCCc1cccc(C(N)=O)c1 | -9.55
CS(=O)(=O)c1snnc1C1CCN(Cc2ccncc2)CC1 | 2.725
CC(=O)Nc1cccc(CN2CCN(C3=NCC(C)(C)S3)CC2)c1 | -9.982
CC(Cn1cccn1)NC(=O)NCc1ccc(OC2CCCC2)nc1 (configuration not stated) | -1.446
CSc1ccc(NS(=O)(=O)c2cnn(C)c2)cn1 | -9.448
CC1CCCN(Cc2ccnc(-c3cccnc3)n2)C1.O=C(O)CC(O)(CC(=O)O)C(=O)O (configuration not stated) | 0.1788
C1CN(c2nc(C3CC3)ns2)CCS1 | -22.87 & -14.95
CCCSc1ncc(CN(C)CCN2CCCCC2)cn1.O=C(O)CC(O)(CC(=O)O)C(=O)O | -6.006
O=C(CCc1nc2cccnc2[nH]1)Nc1cccnc1 | -3.289
CN(Cc1noc(C2CC2)n1)C1CCN(CCc2cnn(C)c2)C1 (configuration not stated) | 3.746
CN(Cc1cccc(C(N)=O)c1)c1ncc(C#N)cc1Cl | -3.259
Cc1cc(NCCNS(=O)(=O)c2cn(C)nc2C)c2ccccc2n1 | -1.55
CCc1nc(CNC(C)c2cccc(N3CCCC3=O)c2)cs1.Cl (configuration not stated) | -4.061
Cc1ccc(C(=O)N2CCC(c3nccn3C(C)C)CC2)c(=O)[nH]1 | 3.421
OCCN1CCN(Cc2coc(-c3cccc(Cl)c3)n2)CC1 | -3.989
CCCN(CC(=O)N1CCNCC1)C(=O)c1cccc(Cl)c1.O=C(O)C(F)(F)F | -2.452
c1cnc(N2CCCC3(CCN(Cc4ccsc4)C3)C2)nc1 (configuration not stated) | -20.57
CN1CCC(Cc2cc(N(C)C)ncn2)C1 (configuration not stated) | 3.25
CCOc1cc(F)ccc1NC(=O)N(C(C)CS(C)(=O)=O)C1CC1 (configuration not stated) | -1.6
Cc1nc(CCNC(=O)NCc2cccc(N(C)C)n2)cs1 | -0.6159
CCC(CNC(=O)c1ccc(Br)o1)N1CCc2ccccc2C1 (configuration not stated) | -1.059
COc1cc(CNC(C)Cn2ccnc2)cc2c1OCO2.Cl (configuration not stated) | -4.824
COc1ccc(NC(=O)N2CCN(c3ncccn3)CC2)cn1 | 8.146
CCS(=O)(=O)N1Cc2[nH]nc(COCc3cccnc3)c2C1.O=C(O)C(F)(F)F | 1.906
OCCN1CCN(Cc2coc(-c3ccc(Cl)cc3)n2)CC1 | -1.635 & -15.25 & -33.98
O=C(CC1CCCC1)N1CCC(c2cc3ncccc3c(O)n2)CC1 | 1.901
CCn1cnnc1CNC(=O)c1cc(Cl)ccc1O | 4.296
Cc1nc(C)n(CC2CCCN2Cc2cn3c(C)cccc3n2)n1 (configuration not stated) | -10.54
c1cc(N2CCOCC(Cc3ccc4[nH]ccc4c3)C2)ncn1 (configuration not stated) | 5.765
O=C(O)[C@@H]1CN(C(=O)CCC(F)(F)F)C[C@H]1c1ccncc1 | -16.71
CSc1ncccc1C(=O)N(CCO)Cc1ccccc1 | -9.337
O=C(O)C(F)(F)F.O=C(O)C(F)(F)F.O=C(O)C(F)(F)F.[H][C@@]12COC[C@]1(COCc1ccncc1)CN(Cc1ccncc1)C2 | -8.205
O=C(O)C(F)(F)F.[H][C@@]12CN(CCOC)C[C@]1([H])[C@@H](OC)CCN2C(=O)Cc1ccccc1 | -18.19
NC(=O)NC(=O)CCN1CCN(c2nccs2)CC1 | 2.61
Cc1cnc(C(=O)N2Cc3ccccc3OC3(CCOCC3)C2)cn1 | -7.397
O=C(NCCc1ccccn1)c1[nH]nc2c1CCCC2 | 12.18 & 7.32
NC(=O)c1ccc(OCC(=O)NS(=O)(=O)c2ccc3c(c2)CCC3)cc1 | 0.6187
CCN1CCN(c2ccc(CNC(=O)c3sccc3C)cn2)CC1 | 11.17
Fc1ccc(CNCC2OCCc3cn(CC4CC4)nc32)cc1.O=C(O)C(F)(F)F.O=C(O)C(F)(F)F (configuration not stated) | 2.971
COc1cccc(Nc2nc(C3CCCNC3)c3ccccn23)c1.Cl (configuration not stated) | 20.02 & -9.873 & 61.51
CC(C)(C)CC(=O)NCCn1nc(C2CCNC2)c2cccnc21.Cl (configuration not stated) | 0.06662
Cc1cccc(OCC2CCCN(C(=O)CCn3ccccc3=O)C2)c1 (configuration not stated) | -9.684 & -11.66
Cc1noc(C2CCN(Cn3cc(Cl)cn3)CC2)n1 | 4.758
CN(C)CCN(Cc1ccccc1)C(=O)CN1CCCNC1=O | 7.219
O=C(O)C(F)(F)F.O=C(O)C(F)(F)F.O=c1ccc2c(n1CCN1CCCC1)CCN(Cc1ccoc1)CC2 | 0.6548
CN(Cc1ccco1)Cc1cncc2c1CCN(Cc1ccoc1)C2.Cl.Cl.Cl | -16.81 & -22.87 & -5.916
CCc1nc2n(n1)CC(NCc1cn(C)nc1-c1cccnc1)CC2 (configuration not stated) | -12.66
CN1CCOC(c2cncc(CCC(N)=O)n2)C1 (configuration not stated) | -49.42
CCc1nc(CN2CCCC(Cn3nc(C)nc3C)C2)no1 (configuration not stated) | 10.34
CCC(CN1CCCCC1)NC(=O)C1(c2ccc(F)cc2)CC1.O=C(O)CC(O)(CC(=O)O)C(=O)O (configuration not stated) | -5.003
COc1ccc(OCc2cc(C(=O)N3CCC(O)CC3)n[nH]2)c(Cl)c1 | -19.49
[H][C@]12CCN(C(=O)C3CCC3)CC[C@@]1([H])S(=O)(=O)N(Cc1cccnc1)C2 | 13.7
O=C(O)C(F)(F)F.O=C(c1cnoc1)N1CCC[C@]2(C[C@H](Oc3ncccc3F)CO2)C1 | -0.6548
CCOC(C)C(=O)NCc1ccc(N(C)C)cc1 (configuration not stated) | 0.8503
O=C1CC(c2ccsc2)c2c(n(C3CCOCC3)[nH]c2=O)N1 (configuration not stated) | -12.06
O=S(=O)(c1ccc(F)cc1)N1CCCC1c1cc[nH]n1 (configuration not stated) | 1.506
CC(=O)N1CCCC2(CCN(c3ccccc3)C2=O)C1 (configuration not stated) | 1.664
COCCNC(=O)C(C)n1nc(-c2ccco2)cc(N)c1=O (configuration not stated) | -4.249
CCOc1c(F)cccc1C(=O)N(CC)C(C)c1cccnc1 (configuration not stated) | -7.171
O=C(O)C(F)(F)F.O=C(O)C(F)(F)F.O=C(c1cccnc1)N1CC[C@H](OCC2CC2)[C@@H]1Cc1cccnc1 | 7.035
O=C(O)C(F)(F)F.O=C(c1cccs1)N1CCCC2(COCCN(c3cccnc3)C2)C1 (configuration not stated) | -1.804
COCCCC(=O)N1CCC(Nc2cccnn2)CC1 | 5.932
CSCCNC(=O)c1coc(COc2ccc3sc(C)nc3c2)n1 | -19.39
COCCNc1cccc(C2CCCN2)n1 (configuration not stated) | 9.006
CC(CS(C)(=O)=O)N(C(=O)Nc1ccc(F)cc1F)C1CC1 (configuration not stated) | -10.06

The last 9 entries again:

Compound,Percent Effect
CC(=O)N1CCCC2(CCN(c3ccccc3)C2=O)C1 (configuration not stated),1.664
COCCNC(=O)C(C)n1nc(-c2ccco2)cc(N)c1=O (configuration not stated),-4.249
CCOc1c(F)cccc1C(=O)N(CC)C(C)c1cccnc1 (configuration not stated),-7.171
O=C(O)C(F)(F)F.O=C(O)C(F)(F)F.O=C(c1cccnc1)N1CC[C@H](OCC2CC2)[C@@H]1Cc1cccnc1,7.035
O=C(O)C(F)(F)F.O=C(c1cccs1)N1CCCC2(COCCN(c3cccnc3)C2)C1 (configuration not stated),-1.804
COCCCC(=O)N1CCC(Nc2cccnn2)CC1,5.932
CSCCNC(=O)c1coc(COc2ccc3sc(C)nc3c2)n1,-19.39
COCCNc1cccc(C2CCCN2)n1 (configuration not stated),9.006
CC(CS(C)(=O)=O)N(C(=O)Nc1ccc(F)cc1F)C1CC1 (configuration not stated),-10.06